ChEMBL document CHEMBL3414523, “FimH antagonists: bioisosteres to improve the in vitro and in vivo PK/PD profile” (J Med Chem, 2015)
≈ marks a conversion by molar mass, not a printed value.

Legend:
[1] = physchem; conditions: buffer, pH 3
[2] = physchem; conditions: buffer, pH 7.4
[3] = physchem; conditions: octanol/water, pH 7.4

Structure (SMILES)	solubility kinetic at 15 h, 500 µM [1] [µg/mL]	solubility kinetic at 15 h, 500 µM [2] [µg/mL]	logD at 2 h, 1 µM [3]
OC[C@H]1O[C@H](Oc2ccc(-c3ccc(-c4nnn[nH]4)cc3)cc2)[C@@H](O)[C@@H](O)[C@@H]1O	> 150	273 (≈ 682 µM)	-1.4
CNS(=O)(=O)c1ccc(-c2ccc(O[C@H]3O[C@H](CO)[C@@H](O)[C@H](O)[C@@H]3O)cc2)cc1		> 250	0.7
